PubChem BioAssay AID1259424 – University of Nebraska Medical Center, 2018
Shown is an unselected part of about 14,000 reagents. 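Higher correlation or smaller distance means closer resemblance to KSR1 loss; control wells, including KSR1 knockdowns, recur on many plates.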 Further read-outs or replicates are left out here. Not given: the time to read-out.

Screen: 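Find knockdowns that reproduce the expression shifts seen after KSR1 loss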 (primary screen)
Cells: human HCT116 colon cancer cells
Reagent: siRNA pool against human genes, 50 nM
Read-out: 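Six signature mRNAs by branched-DNA multiplex assay, scaled to two housekeeping genes and non-targeting median, log2; matched to mean KSR1 knockdown profile by Pearson correlation and euclidean distance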
Scale: mean correlation with KSR1 profile and KSR1 correlation: higher = expression change more like KSR1 knockdown; mean distance from KSR1 profile: higher = expression change less like KSR1 knockdown

gene,mean correlation with KSR1 profile,mean distance from KSR1 profile,"KSR1 correlation, replicate 1"
LOC54073 (retired record),-0.498,3.85,-0.458
SYT16 (synaptotagmin 16),0.539,2.05,0.26
CNTF (ciliary neurotrophic factor),0.105,2.14,0.287
COL5A3 (collagen type V alpha 3 chain),-0.66,2.95,-0.652
ZFYVE1 (zinc finger FYVE-type containing 1),-0.421,1.29,-0.133
SNAPC2 (small nuclear RNA activating complex polypeptide 2),0.149,3.01,0.297
DHX35 (DEAH-box helicase 35),0.219,4.76,-0.0406
PUF60 (poly(U) binding splicing factor 60),0.215,1.97,0.503
PKIA (cAMP-dependent protein kinase inhibitor alpha),0.61,2.26,0.711
EBF1 (EBF transcription factor 1),0.197,1.56,0.0254
THRAP3 (thyroid hormone receptor associated protein 3),0.0971,1.54,0.208
TPGS2 (tubulin polyglutamylase complex subunit 2),-0.551,2.77,-0.364
"RAP1A (RAP1A, member of RAS oncogene family)",0.797,1.08,0.984
R3HCC1L (R3H domain and coiled-coil containing 1 like),-0.271,1.41,-0.648
GSE1 (Gse1 coiled-coil protein),-0.463,3.51,-0.353
TMEM62 (transmembrane protein 62),0.131,2.05,0.0366
CAVIN2 (caveolae associated protein 2),0.823,3,0.873
MRPL2 (mitochondrial ribosomal protein L2),-0.197,4.38,-0.223

3 entries already listed, sorted by “mean correlation with KSR1 profile”, ascending:
gene,mean correlation with KSR1 profile,mean distance from KSR1 profile,"KSR1 correlation, replicate 1"
EBF1 (EBF transcription factor 1),0.197,1.56,0.0254
PUF60 (poly(U) binding splicing factor 60),0.215,1.97,0.503
PKIA (cAMP-dependent protein kinase inhibitor alpha),0.61,2.26,0.711

More reagents follow:
gene,mean correlation with KSR1 profile,mean distance from KSR1 profile,"KSR1 correlation, replicate 1"
RNF10 (ring finger protein 10),-0.651,1.95,-0.751
OPA3 (outer mitochondrial membrane lipid metabolism regulator OPA3),-0.142,1.83,-0.316
AVPI1 (arginine vasopressin induced 1),-0.438,2.92,-0.353
CDH20 (cadherin 20),0.186,2.33,0.177
C14orf93 (chromosome 14 open reading frame 93),0.6,3.32,0.408
DNAJA4 (DnaJ heat shock protein family (Hsp40) member A4),-0.386,1.82,-0.212
CDK11A (cyclin dependent kinase 11A),0.755,2.06,0.672
ELOC (elongin C),-0.614,4.48,-0.694
BCL11B (BCL11 transcription factor B),-0.834,1.88,-0.885
ASTN1 (astrotactin 1),-0.0343,1.99,-0.0584
NDUFB7 (NADH:ubiquinone oxidoreductase subunit B7),-0.345,5.73,-0.156
PANX2 (pannexin 2),-0.307,2.42,-0.204
F7 (coagulation factor VII),-0.433,6.02,-0.478
AAMDC (adipogenesis associated Mth938 domain containing),0.294,2.31,0.117
ETF1 (eukaryotic translation termination factor 1),-0.00669,2.87,0.149
PCSK1N (proprotein convertase subtilisin/kexin type 1 inhibitor),0.525,3.12,0.4
TRIP6 (thyroid hormone receptor interactor 6),-0.521,2.32,-0.269
APBA2 (amyloid beta precursor protein binding family A member 2),-0.0817,1.74,0.0724
ZNF141 (zinc finger protein 141),-0.341,2.63,-0.054
KCNA1 (potassium voltage-gated channel subfamily A member 1),-0.275,1.69,-0.293
GAN (gigaxonin),0.397,1.55,0.313
EIF5A (eukaryotic translation initiation factor 5A),0.364,1.85,0.262
RFC4 (replication factor C subunit 4),0.741,1.13,0.707
GON4L (gon-4 like),-0.575,2.36,-0.681
PORCN (porcupine O-acyltransferase),-0.0406,1.73,-0.284
"ALG2 (ALG2 alpha-1,3/1,6-mannosyltransferase)",0.34,1.76,0.386
"OPN1SW (opsin 1, short wave sensitive)",0.491,3.75,0.552
GPR63 (G protein-coupled receptor 63),0.756,2.72,0.709
PTEN (phosphatase and tensin homolog),-0.726,2.17,-0.64
KIFAP3 (kinesin associated protein 3),0.387,1.15,-0.0178
P3H4 (prolyl 3-hydroxylase family member 4 (inactive)),-0.0611,1.75,0.22
RASGRP1 (RAS guanyl releasing protein 1),0.573,1.5,0.469
